Laboratory results from publication PMC6134139.
Results are given in words; binding and its absence hold for the method and conditions named. For some assays here: Binding seen in cells or lysates may run through a third protein. Some results given as binding are weak or reduced against the parent protein; the word gives no strength. For some assays here: Sequences can lack the tags named with a protein.

Amino acid sequences for entries named in this document (tags omitted).
UniProt Q96GD4: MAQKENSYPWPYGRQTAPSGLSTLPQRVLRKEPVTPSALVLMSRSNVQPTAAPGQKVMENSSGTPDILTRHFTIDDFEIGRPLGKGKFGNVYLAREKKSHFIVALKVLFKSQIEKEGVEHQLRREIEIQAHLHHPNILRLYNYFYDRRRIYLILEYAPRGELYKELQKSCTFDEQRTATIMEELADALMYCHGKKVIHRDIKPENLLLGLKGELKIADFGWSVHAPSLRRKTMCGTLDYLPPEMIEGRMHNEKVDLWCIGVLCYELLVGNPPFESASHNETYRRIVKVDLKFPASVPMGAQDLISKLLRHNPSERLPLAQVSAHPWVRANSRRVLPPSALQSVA

B1: endogenous (native) RecQL4 helicase of 293T cells (protein, UniProt O94761 1-1208)
chain: MERLRDVRERLQAWERAFRRQRGRRPSQDDVEAAPEETRALYREYRTLKRTTGQAGGGLRSSESLPAAAEEAPEPRCWGPHLNRAATKSPQSTPGRSRQGSVPDYGQRLKANLKGTLQAGPALGRRPWPLGRASSKASTPKPPGTGPVPSFAEKVSDEPPQLPEPQPRPGRLQHLQASLSQRLGSLDPGWLQRCHSEVPDFLGAPKACRPDLGSEESQLLIPGESAVLGPGAGSQGPEASAFQEVSIRVGSPQPSSSGGEKRRWNEEPWESPAQVQQESSQAGPPSEGAGAVAVEEDPPGEPVQAQPPQPCSSPSNPRYHGLSPSSQARAGKAEGTAPLHIFPRLARHDRGNYVRLNMKQKHYVRGRALRSRLLRKQAWKQKWRKKGECFGGGGATVTTKESCFLNEQFDHWAAQCPRPASEEDTDAVGPEPLVPSPQPVPEVPSLDPTVLPLYSLGPSGQLAETPAEVFQALEQLGHQAFRPGQERAVMRILSGISTLLVLPTGAGKSLCYQLPALLYSRRSPCLTLVVSPLLSLMDDQVSGLPPCLKAACIHSGMTRKQRESVLQKIRAAQVHVLMLTPEALVGAGGLPPAAQLPPVAFACIDEAHCLSQWSHNFRPCYLRVCKVLRERMGVHCFLGLTATATRRTASDVAQHLAVAEEPDLHGPAPVPTNLHLSVSMDRDTDQALLTLLQGKRFQNLDSIIIYCNRREDTERIAALLRTCLHAAWVPGSGGRAPKTTAEAYHAGMCSRERRRVQRAFMQGQLRVVVATVAFGMGLDRPDVRAVLHLGLPPSFESYVQAVGRAGRDGQPAHCHLFLQPQGEDLRELRRHVHADSTDFLAVKRLVQRVFPACTCTCTRPPSEQEGAVGGERPVPKYPPQEAEQLSHQAAPGPRRVCMGHERALPIQLTVQALDMPEEAIETLLCYLELHPHHWLELLATTYTHCRLNCPGGPAQLQALAHRCPPLAVCLAQQLPEDPGQGSSSVEFDMVKLVDSMGWELASVRRALCQLQWDHEPRTGVRRGTGVLVEFSELAFHLRSPGDLTAEEKDQICDFLYGRVQARERQALARLRRTFQAFHSVAFPSCGPCLEQQDEERSTRLKDLLGRYFEEEEGQEPGGMEDAQGPEPGQARLQDWEDQVRCDIRQFLSLRPEEKFSSRAVARIFHGIGSPCYPAQVYGQDRRFWRKYLHLSFHALVGLATEELLQVAR
B2: His-RecQL4-Flag (full-length RecQL4 with N-terminal His tag and C-terminal Flag tag) (protein, UniProt O94761 1-1208)
chain: B1 chain

Tests used:
[1] = biological target: Flag-tagged full-length Aurora B kinase (AURKB) (human) (UniProt Q96GD4); experiment: co-IP; anti-Flag M2 affinity gel; whole-cell lysates of transfected 293T cells, 1.0 mg protein in lysis buffer (50 mM Tris-HCl pH 7.5, 150 mM NaCl, 1% NP-40, 5 mM EDTA, 5 mM EGTA); 4 °C, 3-4 h; Western blot
GST-AURKB (human) = GST-AURKB (human) (UniProt Q96GD4); experiment: pull-down; in vitro GST pull-down: GST-AURKB or GST immobilised on glutathione-Sepharose beads, incubated with purified His-RecQL4-Flag; 4 °C, 2 h; Western blot with RecQL4 antibodies; both purified

| Binder | binding [1] | binding (GST-AURKB (human)) |
| --- | --- | --- |
| B1 | binds | – |
| B2 | – | binds |
